Taken from: PubChem BioAssay AID743121 (NCATS, 2013)
The whole screen tested about 26,000 reagents; this is a random part of them. Over the whole deposit, 167 (0.63%) are marked active. 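Calls are per gene from RSA p-values that are not deposited; an individual active-marked siRNA can sensitise only weakly.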 The numbers tell different reagents against one gene apart.

- Purpose: 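Knock-downs that sensitise breast cancer cells to camptothecin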 (primary screen)
- Cell system: MDA-MB-231 cells, a human breast cancer line
- Reagents: single siRNA against human genes, 20 nM siRNA (0.8 pmol per well)
- Time to read-out: 120 h (drug added 48 h after transfection, read 72 h later)
- Conditions: camptothecin 20 nM (about EC30) for 72 h; vehicle 0.1% DMSO in parallel plates
- Measurement: 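CellTiter-Glo ATP signal, scaled to control siRNA as percent viability; sensitisation given as log2 of untreated divided by camptothecin-treated viability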
- Direction: log2 vehicle/camptothecin viability: higher = stronger sensitisation to camptothecin; viability with camptothecin and viability without drug: higher = more viable cells
- Rule for the call: 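Active genes have an RSA gene-level p-value below 0.001, computed from the ratios of their separate siRNAs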

gene symbol | reagent no. | log2 vehicle/camptothecin viability | viability with camptothecin (% of control) | viability without drug (% of control) | outcome
AXL (AXL receptor tyrosine kinase) | 1 | -0.0872 | 111 | 104 | inactive
AXL (AXL receptor tyrosine kinase) | 2 | -0.195 | 106 | 92.8 | inactive
AXL (AXL receptor tyrosine kinase) | 3 | -0.0891 | 78 | 73.3 | inactive
AXL (AXL receptor tyrosine kinase) | 4 | -0.231 | 84.1 | 71.7 | inactive
LATS1 (large tumor suppressor kinase 1) | 1 | -0.263 | 125 | 104 | inactive
LATS1 (large tumor suppressor kinase 1) | 2 | -0.291 | 125 | 103 | inactive
LATS1 (large tumor suppressor kinase 1) | 3 | 1.2 | 35 | 80.3 | inactive
LATS1 (large tumor suppressor kinase 1) | 4 | -0.684 | 110 | 68.3 | inactive
GABRB1 (gamma-aminobutyric acid type A receptor subunit beta1) | 1 | -0.358 | 68.3 | 53.3 | inactive
GABRB1 (gamma-aminobutyric acid type A receptor subunit beta1) | 2 | -0.379 | 96.4 | 74.2 | inactive
GABRB1 (gamma-aminobutyric acid type A receptor subunit beta1) | 3 | -0.0777 | 114 | 108 | inactive
NAGA (alpha-N-acetylgalactosaminidase) | 1 | -0.053 | 90.7 | 87.4 | inactive
NAGA (alpha-N-acetylgalactosaminidase) | 2 | 0.175 | 69.7 | 78.7 | inactive
NAGA (alpha-N-acetylgalactosaminidase) | 3 | -0.222 | 81.5 | 69.9 | inactive
CTSS (cathepsin S) | 1 | -0.0972 | 103 | 96.5 | inactive
CTSS (cathepsin S) | 2 | -0.0291 | 36.2 | 35.5 | inactive
CTSS (cathepsin S) | 3 | -0.123 | 95.2 | 87.5 | inactive
CTSS (cathepsin S) | 4 | -0.378 | 52.8 | 40.6 | inactive
RARS1 (arginyl-tRNA synthetase 1) | 1 | -0.155 | 68.1 | 61.1 | inactive
RARS1 (arginyl-tRNA synthetase 1) | 2 | -0.282 | 85.9 | 70.6 | inactive
RARS1 (arginyl-tRNA synthetase 1) | 3 | -0.404 | 104 | 78.9 | inactive
SYK (spleen associated tyrosine kinase) | 1 | -0.0409 | 108 | 105 | inactive
SYK (spleen associated tyrosine kinase) | 2 | 0.0297 | 110 | 112 | inactive
SYK (spleen associated tyrosine kinase) | 3 | -0.00157 | 86 | 85.9 | inactive
SYK (spleen associated tyrosine kinase) | 4 | -0.144 | 64.1 | 58 | inactive
TAB3 (TGF-beta activated kinase 1 (MAP3K7) binding protein 3) | 1 | 0.0826 | 95.2 | 101 | inactive
TAB3 (TGF-beta activated kinase 1 (MAP3K7) binding protein 3) | 2 | -0.0956 | 95.3 | 89.2 | inactive
TAB3 (TGF-beta activated kinase 1 (MAP3K7) binding protein 3) | 3 | -0.23 | 115 | 97.8 | inactive
TAB3 (TGF-beta activated kinase 1 (MAP3K7) binding protein 3) | 4 | -0.247 | 119 | 100 | inactive
PTPRS (protein tyrosine phosphatase receptor type S) | 1 | 0.398 | 28.4 | 37.4 | inactive
PTPRS (protein tyrosine phosphatase receptor type S) | 2 | -0.168 | 110 | 97.6 | inactive
PTPRS (protein tyrosine phosphatase receptor type S) | 3 | -0.288 | 72.1 | 59 | inactive
PTPRS (protein tyrosine phosphatase receptor type S) | 4 | -0.282 | 76.3 | 62.8 | inactive

Quoted from the entries so far, 11 entries:
gene symbol | reagent no. | log2 vehicle/camptothecin viability | viability with camptothecin (% of control) | viability without drug (% of control) | outcome
CTSS (cathepsin S) | 3 | -0.123 | 95.2 | 87.5 | inactive
CTSS (cathepsin S) | 4 | -0.378 | 52.8 | 40.6 | inactive
RARS1 (arginyl-tRNA synthetase 1) | 1 | -0.155 | 68.1 | 61.1 | inactive
RARS1 (arginyl-tRNA synthetase 1) | 2 | -0.282 | 85.9 | 70.6 | inactive
RARS1 (arginyl-tRNA synthetase 1) | 3 | -0.404 | 104 | 78.9 | inactive
SYK (spleen associated tyrosine kinase) | 1 | -0.0409 | 108 | 105 | inactive
SYK (spleen associated tyrosine kinase) | 2 | 0.0297 | 110 | 112 | inactive
SYK (spleen associated tyrosine kinase) | 3 | -0.00157 | 86 | 85.9 | inactive
SYK (spleen associated tyrosine kinase) | 4 | -0.144 | 64.1 | 58 | inactive
TAB3 (TGF-beta activated kinase 1 (MAP3K7) binding protein 3) | 1 | 0.0826 | 95.2 | 101 | inactive
TAB3 (TGF-beta activated kinase 1 (MAP3K7) binding protein 3) | 2 | -0.0956 | 95.3 | 89.2 | inactive

The list goes on:
gene symbol | reagent no. | log2 vehicle/camptothecin viability | viability with camptothecin (% of control) | viability without drug (% of control) | outcome
LAMB2 (laminin subunit beta 2) | 1 | -0.216 | 78.8 | 67.8 | inactive
LAMB2 (laminin subunit beta 2) | 2 | -0.0454 | 90.3 | 87.5 | inactive
LAMB2 (laminin subunit beta 2) | 3 | -0.237 | 66.5 | 56.4 | inactive
COX10 | 1 | -0.0794 | 90.1 | 85.3 | inactive
COX10 | 2 | -0.134 | 115 | 105 | inactive
COX10 | 3 | -0.0549 | 92.8 | 89.3 | inactive
COX10 | 4 | -0.433 | 62.6 | 46.4 | inactive
SLC10A6 | 1 | -0.216 | 107 | 92.1 | inactive
SLC10A6 | 2 | 0.0383 | 99.3 | 102 | inactive
SLC10A6 | 3 | -0.228 | 59.5 | 50.8 | inactive
SLC10A6 | 4 | -0.192 | 82.5 | 72.2 | inactive
GRIPAP1 (GRIP1 associated protein 1) | 1 | -0.283 | 67.1 | 55.1 | inactive
GRIPAP1 (GRIP1 associated protein 1) | 2 | 0.183 | 84.1 | 95.5 | inactive
GRIPAP1 (GRIP1 associated protein 1) | 3 | -0.14 | 93.6 | 85 | inactive
GRIPAP1 (GRIP1 associated protein 1) | 4 | 1.6 | 17 | 51.6 | inactive
SLC25A41 | 1 | -0.248 | 95.2 | 80.2 | inactive
SLC25A41 | 2 | -0.1 | 105 | 98.4 | inactive
SLC25A41 | 3 | -0.0146 | 70.8 | 70.1 | inactive
SLC25A41 | 4 | 0.47 | 38.2 | 52.9 | inactive
EHMT1 (euchromatic histone lysine methyltransferase 1) | 1 | -0.0476 | 40.7 | 39.4 | inactive
EHMT1 (euchromatic histone lysine methyltransferase 1) | 2 | -0.0314 | 95.3 | 93.2 | inactive
EHMT1 (euchromatic histone lysine methyltransferase 1) | 3 | -0.208 | 103 | 89.4 | inactive
EHMT1 (euchromatic histone lysine methyltransferase 1) | 4 | -0.106 | 95.6 | 88.8 | inactive
NAA15 (N-alpha-acetyltransferase 15, NatA auxiliary subunit) | 1 | 0.498 | 58.5 | 82.6 | inactive
NAA15 (N-alpha-acetyltransferase 15, NatA auxiliary subunit) | 2 | -0.244 | 77.5 | 65.4 | inactive
NAA15 (N-alpha-acetyltransferase 15, NatA auxiliary subunit) | 3 | -0.466 | 102 | 74.1 | inactive
NAA15 (N-alpha-acetyltransferase 15, NatA auxiliary subunit) | 4 | -0.152 | 79.1 | 71.2 | inactive
PTP4A3 (protein tyrosine phosphatase 4A3) | 1 | 0.155 | 80.7 | 89.9 | inactive
PTP4A3 (protein tyrosine phosphatase 4A3) | 2 | -0.0746 | 64.4 | 61.1 | inactive
PTP4A3 (protein tyrosine phosphatase 4A3) | 3 | -0.018 | 24.7 | 24.4 | inactive
PTP4A3 (protein tyrosine phosphatase 4A3) | 4 | -0.385 | 81.4 | 62.3 | inactive
SLCO1B1 | 1 | 0.14 | 82.5 | 90.9 | inactive
SLCO1B1 | 2 | 0.0545 | 91.1 | 94.7 | inactive
SLCO1B1 | 3 | -0.371 | 69.3 | 53.6 | inactive
SLCO1B1 | 4 | -0.195 | 110 | 96.3 | inactive
